Laboratory results from PubChem BioAssay AID2685 (National Center for Advancing Translational Sciences (NCATS), 2010).
Some of the results follow. These are further read-outs of the screen, such as a control signal, another cell line or another target. No call is given for them. Compounds called inactive in the main read-out are mostly missing here. Potencies come from curve fits of mixed quality, noted in brackets.

Experiment: qHTS Assay for Lipid Storage Modulators in Drosophila S3 Cells;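 for cell number change: cells counted by Cell Tracker Red CMTPX staining in the red channel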
Details: BODIPY lipid droplet fluorescence, 18-24 h; for cell number change: measured here: cell count max response, cells fed with added oleic acid
Procedure, shortened: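 Laser-scanning cytometry quantifies lipid droplet accumulation (500–530 nm total intensity; droplet/cell object ratio) in oleic acid-fed (400 uM added) Drosophila S3 cells treated with a concentration series. 20 uM Triacsin C defined 100% inhibition.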

[1] = measured here: lipid fluorescence (Fed channel) AC50, cells fed with added oleic acid
[2] = measured here: cell number channel AC50, cells fed with added oleic acid

Structure (SMILES)	cell number change [%]	AC50 [1]	AC50 [2]
CC(=O)c1cnc(Nc2cccc(Cl)c2Cl)s1	5.7	0.731 µM [rising, single point]	
CCCN(C(=O)COC(=O)COc1c(C)cccc1C)c1c(N)n(Cc2ccccc2)c(=O)[nH]c1=O	-37.5	20.6 µM [falling, single point]	14.6 µM [falling, single point]
COc1ccc(-c2noc(-c3cccc(Cl)c3)n2)cc1OC	38.9	2.31 µM [rising, single point]	29.1 µM [rising, single point]
CSc1nsc(SC)c1NC(=O)OCCc1ccccn1	-17.6	4.11 µM [falling, single point]	5.17 µM [falling, single point]
COc1ccc(N2CC(O)=C(c3n(C)c4ccccc4[n+]3C)C2=N)cc1	-53.9	23.1 µM [falling, single point]	29.1 µM [falling, single point]
O=C(NCc1ccccc1)C(c1ccc(O)cc1)N(C(=O)c1cnccn1)c1ccccc1 (centres undefined)	18	29.1 µM [rising, single point]	
CCc1cccc2c(C#N)cn(CC(=O)NCCOC)c12			0.092 µM [rising, full curve, poor fit]
CCc1ccc(C2=NN(S(C)(=O)=O)C(c3cccs3)C2)cc1 (centres undefined)	536	29.1 µM [rising, single point]	18.4 µM [rising, partial curve]
COc1cc(CNC2CCCC2)cc(Br)c1OCC(=O)Nc1ccccc1C	19.7		
CC(C)[C@H](NC(=O)[C@H]1N2C(=O)c3ccccc3C2SC1(C)C)C(=O)NCc1ccco1 (some centres undefined)	-9.44	18.4 µM [falling, single point]	
COc1cccc2sc(NC(=O)c3ccc(S(=O)(=O)N4CCOCC4)cc3)nc12	8.47	2.31 µM [rising, partial curve]	
O=C(Nc1ccc2nc3n(c(=O)c2c1)CCCCC3)c1ccccc1[N+](=O)[O-]	-39.9	2.31 µM [falling, partial curve]	13 µM [falling, single point]
Cc1noc(C)c1C(=O)Nc1ccc(F)cc1F	21	1.46 µM [falling, partial curve]	
CCOc1ccc(NC(=O)Nc2ccc(Cc3ccncc3)cc2)cc1	-0.604	1.84 µM [rising, partial curve, poor fit]	
COc1ccc(N2C(=O)CC(N3CCC(C(N)=O)CC3)C2=O)cc1 (centres undefined)	-13.9		2.06 µM [falling, single point]
CN(C)CCCN(C(=O)c1ccc(C(=O)c2ccccc2)cc1)c1nc2cc3c(cc2s1)OCO3	-33.4		1.16 µM [falling, full curve, poor fit]
COc1ccc(S(=O)(=O)/N=C2/NC(=O)/C(=C/c3ccco3)S2)cc1	-7.65		
O=C(c1ccco1)N1CCN(C(=O)C2c3ccccc3Oc3ccccc32)CC1	-12	29.1 µM [falling, single point]	
C=CCn1c(SCC(=O)Nc2ccccc2C)nc(O)cc1=O	-19.1	6.51 µM [falling, single point]	
COC(=O)c1ccc(OCC(=O)c2cccc(OC)c2)cc1	83.3	23.1 µM [rising, partial curve]	23.1 µM [rising, single point]
c1ccc(C2=Nc3ccccc3SC2c2nc3ccccc3[nH]2)cc1 (centres undefined)	-32.7		32.6 µM [falling, single point]
O=C(NCc1ccon1)C1CCC(=O)N(CCc2cccc(F)c2)C1 (centres undefined)	1.1	29.1 µM [rising, single point]	
Cc1ccc(N(C(C)C(=O)NCc2ccncc2)S(C)(=O)=O)cc1C (centres undefined)	-7.71	0.291 µM [falling, partial curve, poor fit]	
CSc1ccccc1OCc1cc(C(=O)N2CCCC(C)C2)no1 (centres undefined)	-32.8	29.1 µM [falling, single point]	29.1 µM [falling, single point]
COc1ccc(-c2csc(Nc3cccnc3)n2)cc1	-73.7		20.6 µM [falling, single point]
C=CCSc1nnc2c(n1)OC(c1ccco1)Nc1ccccc1-2 (centres undefined)	-16.4	18.4 µM [rising, single point]	
CC1CCCCN1C(=O)COC(=O)c1cc([N+](=O)[O-])ccc1N (centres undefined)	31.6		9.2 µM [rising, partial curve]

Random excerpt: 2 records from the list
Structure (SMILES)	cell number change [%]	AC50 [1]	AC50 [2]
CC(=O)c1cnc(Nc2cccc(Cl)c2Cl)s1	5.7	0.731 µM [rising, single point]	
COc1ccc(N2CC(O)=C(c3n(C)c4ccccc4[n+]3C)C2=N)cc1	-53.9	23.1 µM [falling, single point]	29.1 µM [falling, single point]
